PubChem BioAssay AID652243 – Drosophila RNAi Screening Center, 2013
The deposit covers about 24,000 reagents; below is an unselected part of those with a known target gene and a result. Over the whole deposit, 246 (1%) are marked active. 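Plates not normalised; calls are printed but the firefly/Renilla ratio behind them is not deposited; fold cut for lowering reported inconsistently.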 Raw values are not corrected between plates. Names joined by + are all predicted targets of the reagent. The record does not give: the amount of reagent.

Purpose: 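Fly genes required for human androgen receptor driven transcription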 (primary screen)
System: Drosophila S2R+ cells
Reagents: long dsRNA against Drosophila genes
Time to read-out: 72 h (48 h, then 24 h hormone)
Treatment: synthetic androgen R1881 at 10 nM for 24 h
Read-out: 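Per-well raw luminescence of the androgen-driven firefly reporter and of the Renilla control, two replicates each, without normalisation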
Reading the numbers: firefly reporter light: higher = more light from androgen-responsive reporter; Renilla control light: higher = more constitutive control signal (cell number, transfection)
Call rule: 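Across duplicate plates, a knock-down whose log firefly/Renilla ratio shifted a set fold down or up from the GFP/LacZ control mean was a hit; the downward cut appears as both 1.5 and 3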
Calls: active = hit: reporter lowered or raised; inactive = no hit

Silencing of CG32199 [DRSC09990] gave: firefly reporter light, replicate 1 = 2.19e5; firefly reporter light, replicate 2 = 1.48e5; Renilla control light, replicate 1 = 2.40e6; Renilla control light, replicate 2 = 1.99e6; inactive.
For CG4887 [DRSC00670], the values are firefly reporter light, replicate 1 = 1.15e5; firefly reporter light, replicate 2 = 98633; Renilla control light, replicate 1 = 1.20e6; Renilla control light, replicate 2 = 1.14e6; inactive.
Depletion of CG4887 [DRSC21563] came out at: firefly reporter light, replicate 1 = 6.26e5; firefly reporter light, replicate 2 = 6.19e5; Renilla control light, replicate 1 = 2.65e6; Renilla control light, replicate 2 = 2.75e6; inactive.
After knock-down of CG4887 [DRSC25723], the screen gave firefly reporter light, replicate 1 = 8.27e5; firefly reporter light, replicate 2 = 1.13e6; Renilla control light, replicate 1 = 7.33e5; Renilla control light, replicate 2 = 1.15e6; inactive.
After knock-down of SamDC (S-adenosylmethionine decarboxylase) [DRSC03429], the record shows firefly reporter light, replicate 1 = 6.43e5; firefly reporter light, replicate 2 = 7.96e5; Renilla control light, replicate 1 = 1.64e6; Renilla control light, replicate 2 = 1.72e6; inactive.
For CG30183 [DRSC04450] the deposit lists firefly reporter light, replicate 1 = 1.60e5; firefly reporter light, replicate 2 = 2.09e5; Renilla control light, replicate 1 = 1.38e6; Renilla control light, replicate 2 = 1.30e6; inactive.
After knock-down of CG30183 [DRSC04472], the screen gave firefly reporter light, replicate 1 = 1.86e5; firefly reporter light, replicate 2 = 1.22e5; Renilla control light, replicate 1 = 1.29e6; Renilla control light, replicate 2 = 1.02e6; inactive.
For Mpcp2 [DRSC11226] the deposit lists firefly reporter light, replicate 1 = 2.00e5; firefly reporter light, replicate 2 = 1.43e5; Renilla control light, replicate 1 = 2.59e6; Renilla control light, replicate 2 = 2.23e6; inactive.
Silencing of Mocs2A + Mocs2B [DRSC13697] resulted in: firefly reporter light, replicate 1 = 5.11e5; firefly reporter light, replicate 2 = 4.26e5; Renilla control light, replicate 1 = 2.62e6; Renilla control light, replicate 2 = 3.73e6; inactive.
After knock-down of Mocs2A + Mocs2B [DRSC14219], the screen gave firefly reporter light, replicate 1 = 1.93e5; firefly reporter light, replicate 2 = 1.61e5; Renilla control light, replicate 1 = 2.10e6; Renilla control light, replicate 2 = 2.12e6; inactive.
With knock-down of CG13288 [DRSC09962], the screen gave firefly reporter light, replicate 1 = 1.58e5; firefly reporter light, replicate 2 = 1.88e5; Renilla control light, replicate 1 = 3.10e6; Renilla control light, replicate 2 = 2.66e6; inactive.
After knock-down of CG18371 [DRSC06733], the record shows firefly reporter light, replicate 1 = 78005; firefly reporter light, replicate 2 = 85413; Renilla control light, replicate 1 = 1.65e6; Renilla control light, replicate 2 = 1.65e6; inactive.
